Values of other authors as cited in patent US20120101157A1, “4,5-Diamino-3-Halo-2-Hydroxybenzoic Acid Derivatives and Preparations Thereof” (NATIONAL DEFENSE MEDICAL CENTER, priority 2010, published 2012).

Target: neuraminidases
Conditions: cited from earlier work

CC(=O)NC1C(O)C=C(C(=O)O)OC1C(O)C(O)CO (stereo not shown) [DANA, 2-deoxy-2,3-didehydro-N-acetylneuraminic acid]
Ki: 4 µM
